This test in a line: qHTS Assay to Find Inhibitors of Chronic Active B-Cell Receptor Signaling. The settings on record: ABC-DLBCL IkBa-CBG/CBR reporter, luminescence ratio (green luciferase fused to IkBa over red control in TMD8 lymphoma cells), 4 h. In a few lines: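 Cell line TMD8 (human ABC DLBCL), stably expressing tet-inducible CBG68-IkBa fusion and CBR; IMDM/0.5% FBS; cpd up to 46 uM; dox induction, 4 h, 37C/5% CO2; dual luminescence; green/red ratio; MG132 control.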
(In general: qHTS replaces the single test concentration by a dilution series.)

Setting [1] is: measured here: CBR red luminescence, cell number.
Setting [2] is: measured here: IkBa-CBG green luminescence.

For 62 compounds, AC50 results are on record in PubChem BioAssay AID493014 (National Center for Advancing Translational Sciences (NCATS), 2011).

The term AC50 denotes the concentration giving half of the maximal activity seen.

Structures are written as SMILES. The list shows a part of the results. These are further read-outs of the screen, such as a control signal, another cell line or another target. No call is given for them. Compounds called inactive in the main read-out are mostly missing here. Potencies come from curve fits of mixed quality, noted in brackets.

As to `Nc1c(C(=O)NCCN2CCOCC2)c2nc3ccccc3nc2n1-c1ccc2c(c1)OCO2`, the AC50 under setting [1] was 0.731 µM [falling, partial curve, poor fit]. Still for that read-out and setting: next, `Cc1ccc(C)c(-n2c(SCC(=O)O)nc3sc4c(c3c2=O)CCCC4)c1`: 35.5 µM [falling, single point]; `COc1ccc(OC)c(NC(=O)CSc2nc3n[nH]c(C)c3c(=N)n2-c2cccc(Cl)c2C)c1`: 35.5 µM [falling, single point]. Same read-out and setting: then `CN1CCN(CC(O)(c2ccc(Cl)cc2)c2ccc(Cl)cc2)CC1`, with 35.5 µM [falling, single point]; and `NC(=O)c1c(NC(=O)c2ccccc2C(=O)O)sc2c1CCCC2`, with 35.5 µM [falling, single point]. For the compound `CC1(C)Cc2ccccc2C(/C(=N\Nc2cccc(Cl)c2)C(N)=O)=N1`, the AC50 by setting is: under setting [1], 14.6 µM [falling, partial curve, poor fit]; under setting [2], 5.17 µM [rising, full curve, poor fit]. Turning to `OC1(c2ccccc2F)CCN(Cc2nnc(-c3ccccc3)o2)CC1`, the AC50 under setting [1] is 2.82 µM [rising, partial curve, poor fit]. On the same count and under the same terms, next, `COc1ccc(S(=O)(=O)N2CCC(n3cnc4cc(C(F)(F)F)ccc43)CC2)cc1`: 35.5 µM [falling, single point]; `CC1=NOC(=O)/C1=C\c1ccc(-c2ccc(Br)cc2)o1`: 35.5 µM [rising, single point].

For `O=S1(=O)C=C(Sc2nc3ccccc3s2)c2ccccc21`, the AC50 reads like this: under setting [1], 6.51 µM [falling, partial curve, poor fit]; under setting [2], 10.3 µM [rising, partial curve, poor fit]. `CC1(CC(=O)N/N=C/c2ccc(OCc3ccc(Cl)cc3Cl)cc2)OCCCO1`: under setting [1], the AC50 is 1.41 µM [falling, full curve, poor fit]. As to `CCN(CC)c1ccc(NC(=O)c2cc3c(OC)cccc3[nH]2)cc1`, the AC50 under setting [1] was 0.891 µM [falling, full curve].

Take `Cc1ccc(NC(=O)[C@H](NC(=O)[C@@H]2Cc3ccccc3CN2)c2ccccc2)c(C)c1`: the AC50 under setting [1] is 31.6 µM [falling, single point]. Same read-out and setting: next, `COc1ccc(CCNC(=O)c2cc3sc(Cl)cc3n2C)cc1OC`: 2.06 µM [rising, full curve, poor fit]; `COC(=O)c1cccc(Nc2c(-c3ccc(OC)cc3)nc3nc[nH]n23)c1`: 6.31 µM [falling, partial curve]; `C/C(CC(=O)Nc1cc(Cl)ccc1C)=N\NC(=O)C(=O)N1CCCC1`: 12.6 µM [falling, partial curve, poor fit]. For `O=C(/C=C/c1ccc(Cl)cc1)NC1CC2CCC1C2` (stereo unspecified), under setting [1], the AC50 is 14.1 µM [falling, single point].

Regarding `CCC(=O)N(Cc1cc2ccc(C)cc2[nH]c1=O)c1ccccc1OC`, under setting [1], the AC50 is 0.562 µM [rising, partial curve, poor fit]. On to `Cc1nc(SCC(=O)N2CCN(C(=O)c3cccs3)CC2)c2c(C)c(C)sc2n1`, for which the AC50 under setting [1] is 0.461 µM [rising, full curve].

Take `O=C(Nc1ccc(-c2ccc3nncn3n2)cc1)C1CCCC1`: the AC50 under setting [1] was 35.5 µM [rising, single point]. The same measure, in the same setting: next, `CC1(C)NC(C)(C)/C(=C\c2cccs2)C(=O)C1=O`: 35.5 µM [falling, single point].

`O=C(Nc1nnc(-c2ccc(F)cc2)o1)c1cccc([N+](=O)[O-])c1`: the AC50 under setting [1] was 5.62 µM [falling, full curve, poor fit]. The same measure, in the same setting: next, `O=C(NCCN1CCOCC1)c1ccc(/C=C2\Sc3ccccc3N(Cc3ccccc3F)C2=O)cc1`: 10 µM [falling, partial curve, poor fit]; `O=C(Nc1ccccc1N1CCN(C(=O)c2ccccc2)CC1)c1cc(Br)ccc1Cl`: 11.2 µM [falling, partial curve]; `Cc1ccc2nc(SC(C(=O)Nc3ccc(F)cc3)c3ccccc3)[nH]c2c1` (stereo unspecified): 6.51 µM [rising, single point]. Same read-out and setting: next, `CCn1cc(Cl)c(C(=O)Nc2cccc(C(F)(F)F)c2)n1`: 0.112 µM [rising, full curve, poor fit]; `C=CCSc1nc2ccccc2c2nc(-c3ccccc3)nn12`: 15.8 µM [rising, partial curve, poor fit]. Same read-out and setting: next, `CCc1ccc(-c2cc(C(=O)Nn3cnnc3)c3ccccc3n2)cc1`: 20.6 µM [falling, single point]. Turning to `CCN1N=C(c2ccccc2)Cn2c1nc1ccccc12`, the AC50 is, setting by setting: under setting [1], 23.1 µM [falling, partial curve, poor fit]; under setting [2], 10.3 µM [rising, partial curve, poor fit].

As for `CCc1nc(SCc2ccccc2)n[nH]1`, the AC50 under setting [1] is 7.94 µM [rising, full curve, poor fit]. Take `O=C(Nc1ccc(S(=O)(=O)Nc2nccs2)cc1)c1cccc(F)c1`: under setting [2], the AC50 is 35.5 µM [rising, partial curve, poor fit].

`Cc1cc(=O)oc2cc(OCC(=O)OCC(=O)Nc3ccc(C(C)C)cc3)ccc12`: the AC50 under setting [1] is 1.03 µM [rising, full curve, poor fit].

As to `COc1ccc(-c2[nH]ncc2CN(C)Cc2nonc2C)c(OC)c1`, the AC50 under setting [1] was 2.82 µM [falling, partial curve, poor fit]. Still for that read-out and setting: then `CC1(C)CC(=O)C=C(NCCN2CCNCC2)C1`, with 23.1 µM [falling, single point]. Turning to `O=C(NC(=S)NCC1CCCO1)c1ccc(Cl)cc1Cl` (stereo unspecified), the AC50 under setting [1] is 8.2 µM [rising, partial curve, poor fit]. On the same count and under the same terms, then `COc1cc(CC(=O)NCc2ccc3c(c2)OCO3)cc(OC)c1OC`, with 2.06 µM [falling, single point]. Turning to `CCOc1ccc(/C(CCC(=O)O)=N/NC(=S)NCCc2ccccc2)cc1`, the AC50 under setting [2] was 35.5 µM [falling, single point]. On to `CC[C@]12c3[nH]c4cc(-c5ccco5)ccc4c3CCN1C(=O)[C@@H](CC(=O)NCCc1ccccn1)C[C@@H]2C(=O)N1CCN(C(=O)C2CC2)CC1`, for which, under setting [1], the AC50 is 20.6 µM [rising, partial curve]. On the same count and under the same terms, next, `COc1ccc(OC)c(-n2nnnc2SCC(=O)Nc2ccc(C(=O)N3CCCCC3)cc2)c1`: 3.26 µM [falling, partial curve, poor fit]; `COc1ccccc1/C=C/C(=O)NCC(=O)N/N=C/c1ccc(C(=O)O)cc1`: 8.91 µM [falling, partial curve, poor fit]. As to `Cc1cc(-n2nc(C)cc2C)n2ncc(-c3ccccc3)c2n1`, the AC50 under setting [1] is 0.708 µM [rising, full curve]. On the same count and under the same terms, next, `COc1cccc(C(=O)NCCC2=CCCCC2)c1OC`: 1.03 µM [rising, full curve, poor fit]; `COc1cccc(C(=O)Nc2ccc(NC(=O)c3ccco3)cn2)c1`: 10 µM [falling, partial curve, poor fit].

For the compound `O=c1nc2c(-c3ccc(F)cc3Cl)n[nH]n2c2ccccc12`, the AC50 under setting [1] is 5.62 µM [falling, partial curve]. The same measure, in the same setting: then `Cc1cc(C(=O)NNC(=S)Nc2cccc(C(F)(F)F)c2)nn1C`, with 22.4 µM [rising, partial curve, poor fit]. On the same count and under the same terms, next, `O=C(Nc1cccc(F)c1)c1ccc(S(=O)(=O)NCC2CCCO2)cc1` (stereo unspecified): 15.8 µM [falling, partial curve, poor fit]; `Cc1nn(-c2ccccc2)c2nc(N)c(C(N)=O)cc12`: 2.51 µM [falling, partial curve, poor fit]; `COc1cccc(C(c2nnnn2Cc2ccccc2)N2CCN(C(=O)c3ccco3)CC2)c1OC` (stereo unspecified): 23.1 µM [rising, single point].

`CC(C)NC(=O)c1ccc(C(C)C)cc1`: the AC50 under setting [1] was 3.16 µM [falling, partial curve, poor fit]. Same read-out and setting: next, `CCOc1ccccc1NC(=O)C(c1ccccc1)N1CCN(CC(=O)N2CCOCC2)CC1` (stereo unspecified): 29.1 µM [rising, single point]; `CC(C)Oc1ccc(C(=O)NC2(C(F)(F)F)N=C3SCCN3C2=O)cc1` (stereo unspecified): 29.1 µM [rising, single point]; `Cc1ccc(NC(=O)c2ccc(OC(=O)COc3ccc(Cl)c(C)c3)cc2)cc1`: 2.59 µM [falling, full curve].

For `CCSc1nc2ccc(C)cc2cc1C#N`, the AC50 under setting [1] was 11.2 µM [rising, partial curve]. Still for that read-out and setting: then `C(=N\Nc1ccccn1)/c1ccc2c(c1)OCCO2`, with 0.794 µM [rising, partial curve, poor fit]; and `O=C(COC(=O)c1ccccc1NC(=O)c1ccco1)NC1CCS(=O)(=O)C1` (stereo unspecified), with 35.5 µM [falling, single point]. The same measure, in the same setting: next, `CCOc1ccc(NC(=O)COc2ccccc2C(=O)NCc2ccccc2)cc1`: 11.6 µM [rising, partial curve]; `Cc1ccc(Nc2nnc(SCC(=O)NC3CCCc4ccccc43)s2)cc1` (stereo unspecified): 29.1 µM [falling, single point]; `CC1Sc2ccc(C(=O)Nc3ccccc3OC(F)F)cc2NC1=O` (stereo unspecified): 11.6 µM [falling, partial curve]. As to `COc1cc(SSc2cc(OC)cc([N+](=O)[O-])c2N)c(N)c([N+](=O)[O-])c1`, the AC50 reads like this: under setting [1], 12.6 µM [falling, single point]; under setting [2], 7.94 µM [falling, partial curve]. As for `CN(CC1COc2ccccc2O1)C(=O)c1ccc(N(C)C)cc1` (stereo unspecified), the AC50 under setting [1] is 11.2 µM [rising, partial curve]. Same read-out and setting: then `C=CCNC(=S)Nc1cccc([N+](=O)[O-])c1`, with 5.01 µM [rising, partial curve, poor fit]. The same measure, in the same setting: then `COc1ccc(/C=N/Nc2nc3ccccc3o2)cc1O`, with 13 µM [falling, partial curve, poor fit].
